According to the supplement of paper PMC10849652:
Some of the results follow.

Chains of the proteins cited; added tags and fusions are not shown. Lines headed by an entry give the natural chain unless they say otherwise; changes in a name come on top.
UniProt O95785: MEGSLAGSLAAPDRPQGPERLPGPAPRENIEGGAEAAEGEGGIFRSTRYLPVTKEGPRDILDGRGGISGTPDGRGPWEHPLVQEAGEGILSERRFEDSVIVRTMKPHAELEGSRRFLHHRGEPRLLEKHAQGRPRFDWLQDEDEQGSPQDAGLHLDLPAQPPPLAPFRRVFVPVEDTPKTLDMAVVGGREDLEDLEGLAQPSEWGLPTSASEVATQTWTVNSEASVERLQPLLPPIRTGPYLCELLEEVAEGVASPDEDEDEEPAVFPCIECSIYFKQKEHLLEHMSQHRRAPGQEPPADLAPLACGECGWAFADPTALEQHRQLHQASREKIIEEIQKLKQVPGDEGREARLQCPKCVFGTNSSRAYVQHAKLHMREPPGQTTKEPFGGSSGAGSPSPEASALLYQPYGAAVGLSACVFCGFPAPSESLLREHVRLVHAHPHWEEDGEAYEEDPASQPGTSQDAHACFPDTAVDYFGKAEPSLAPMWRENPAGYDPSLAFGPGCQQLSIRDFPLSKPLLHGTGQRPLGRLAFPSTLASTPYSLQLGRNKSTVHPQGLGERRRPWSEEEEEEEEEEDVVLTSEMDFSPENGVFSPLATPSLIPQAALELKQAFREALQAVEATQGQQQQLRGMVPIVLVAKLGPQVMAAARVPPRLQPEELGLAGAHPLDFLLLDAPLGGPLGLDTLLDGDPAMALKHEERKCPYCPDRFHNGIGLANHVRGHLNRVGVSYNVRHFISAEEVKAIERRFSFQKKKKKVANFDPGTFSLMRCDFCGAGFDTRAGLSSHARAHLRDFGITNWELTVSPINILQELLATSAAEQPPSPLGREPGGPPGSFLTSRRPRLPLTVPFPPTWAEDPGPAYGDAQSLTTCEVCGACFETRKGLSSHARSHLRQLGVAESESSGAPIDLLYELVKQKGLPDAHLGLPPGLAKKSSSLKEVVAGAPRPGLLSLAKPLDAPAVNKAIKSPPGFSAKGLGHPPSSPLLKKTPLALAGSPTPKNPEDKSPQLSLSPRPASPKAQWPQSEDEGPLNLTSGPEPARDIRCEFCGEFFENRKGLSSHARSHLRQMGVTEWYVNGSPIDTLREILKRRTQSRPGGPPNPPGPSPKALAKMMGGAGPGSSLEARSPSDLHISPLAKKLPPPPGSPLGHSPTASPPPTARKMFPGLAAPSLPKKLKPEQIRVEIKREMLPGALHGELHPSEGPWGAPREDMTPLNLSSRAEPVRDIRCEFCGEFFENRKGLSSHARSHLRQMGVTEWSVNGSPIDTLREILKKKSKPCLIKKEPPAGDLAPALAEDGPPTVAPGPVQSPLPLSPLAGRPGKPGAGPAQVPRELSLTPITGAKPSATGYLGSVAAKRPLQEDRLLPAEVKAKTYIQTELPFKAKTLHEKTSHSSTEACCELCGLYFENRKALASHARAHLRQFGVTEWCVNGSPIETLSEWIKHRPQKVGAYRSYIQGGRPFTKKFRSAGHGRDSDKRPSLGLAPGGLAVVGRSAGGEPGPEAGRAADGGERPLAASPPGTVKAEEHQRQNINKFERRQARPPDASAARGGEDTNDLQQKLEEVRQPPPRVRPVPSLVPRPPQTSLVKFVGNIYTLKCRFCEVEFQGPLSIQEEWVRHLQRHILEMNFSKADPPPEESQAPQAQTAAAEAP
UniProt Q96JC1: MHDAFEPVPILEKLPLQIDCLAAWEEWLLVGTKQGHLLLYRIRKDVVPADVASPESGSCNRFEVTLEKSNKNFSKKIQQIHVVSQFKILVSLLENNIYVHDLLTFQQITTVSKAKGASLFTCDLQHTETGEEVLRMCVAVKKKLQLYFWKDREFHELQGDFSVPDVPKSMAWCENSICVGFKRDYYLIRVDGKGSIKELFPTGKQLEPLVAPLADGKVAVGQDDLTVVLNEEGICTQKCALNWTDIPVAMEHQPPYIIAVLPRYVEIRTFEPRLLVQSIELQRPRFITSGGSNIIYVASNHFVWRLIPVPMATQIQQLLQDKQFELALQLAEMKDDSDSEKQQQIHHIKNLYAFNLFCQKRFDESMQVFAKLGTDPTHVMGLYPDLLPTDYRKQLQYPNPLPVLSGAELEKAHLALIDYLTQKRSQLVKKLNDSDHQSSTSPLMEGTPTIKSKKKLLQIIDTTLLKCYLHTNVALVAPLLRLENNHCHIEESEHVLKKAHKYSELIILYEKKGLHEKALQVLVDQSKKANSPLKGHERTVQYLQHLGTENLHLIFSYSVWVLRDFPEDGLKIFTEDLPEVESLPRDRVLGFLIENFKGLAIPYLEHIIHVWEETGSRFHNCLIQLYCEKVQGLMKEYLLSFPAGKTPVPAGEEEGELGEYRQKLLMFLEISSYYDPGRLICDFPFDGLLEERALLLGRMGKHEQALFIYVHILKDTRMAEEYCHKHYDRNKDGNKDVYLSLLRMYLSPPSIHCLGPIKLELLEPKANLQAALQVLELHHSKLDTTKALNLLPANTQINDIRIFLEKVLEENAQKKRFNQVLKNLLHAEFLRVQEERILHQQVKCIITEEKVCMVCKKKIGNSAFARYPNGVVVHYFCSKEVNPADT
UniProt Q96FK6: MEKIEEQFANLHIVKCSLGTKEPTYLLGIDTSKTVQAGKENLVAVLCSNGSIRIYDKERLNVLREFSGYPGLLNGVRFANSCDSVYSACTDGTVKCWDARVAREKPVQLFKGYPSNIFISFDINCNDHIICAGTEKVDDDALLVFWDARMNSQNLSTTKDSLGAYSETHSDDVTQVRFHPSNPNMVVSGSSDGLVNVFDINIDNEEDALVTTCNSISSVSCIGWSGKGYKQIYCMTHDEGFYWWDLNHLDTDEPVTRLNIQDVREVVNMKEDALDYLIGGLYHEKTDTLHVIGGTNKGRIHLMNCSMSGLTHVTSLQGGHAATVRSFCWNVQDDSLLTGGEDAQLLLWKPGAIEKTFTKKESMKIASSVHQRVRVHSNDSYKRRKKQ
UniProt Q8TAF3: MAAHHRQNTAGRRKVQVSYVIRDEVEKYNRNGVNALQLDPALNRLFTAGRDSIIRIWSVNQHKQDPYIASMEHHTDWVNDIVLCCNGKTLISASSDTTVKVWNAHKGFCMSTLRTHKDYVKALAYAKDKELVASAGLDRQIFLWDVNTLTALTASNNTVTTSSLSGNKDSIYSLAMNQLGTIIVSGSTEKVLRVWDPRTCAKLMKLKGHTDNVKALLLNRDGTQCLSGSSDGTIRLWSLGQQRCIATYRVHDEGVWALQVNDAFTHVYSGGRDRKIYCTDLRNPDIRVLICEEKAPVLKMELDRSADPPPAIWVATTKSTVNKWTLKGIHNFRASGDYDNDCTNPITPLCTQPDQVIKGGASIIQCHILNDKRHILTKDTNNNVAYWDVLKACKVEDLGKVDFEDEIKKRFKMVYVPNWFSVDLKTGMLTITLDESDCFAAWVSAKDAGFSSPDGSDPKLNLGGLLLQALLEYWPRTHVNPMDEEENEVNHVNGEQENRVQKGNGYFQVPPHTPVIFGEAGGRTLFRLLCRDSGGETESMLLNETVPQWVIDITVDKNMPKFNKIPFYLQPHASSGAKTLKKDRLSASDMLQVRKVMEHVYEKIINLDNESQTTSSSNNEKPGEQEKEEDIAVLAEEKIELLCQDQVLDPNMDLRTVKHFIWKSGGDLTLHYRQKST
UniProt Q96EX3: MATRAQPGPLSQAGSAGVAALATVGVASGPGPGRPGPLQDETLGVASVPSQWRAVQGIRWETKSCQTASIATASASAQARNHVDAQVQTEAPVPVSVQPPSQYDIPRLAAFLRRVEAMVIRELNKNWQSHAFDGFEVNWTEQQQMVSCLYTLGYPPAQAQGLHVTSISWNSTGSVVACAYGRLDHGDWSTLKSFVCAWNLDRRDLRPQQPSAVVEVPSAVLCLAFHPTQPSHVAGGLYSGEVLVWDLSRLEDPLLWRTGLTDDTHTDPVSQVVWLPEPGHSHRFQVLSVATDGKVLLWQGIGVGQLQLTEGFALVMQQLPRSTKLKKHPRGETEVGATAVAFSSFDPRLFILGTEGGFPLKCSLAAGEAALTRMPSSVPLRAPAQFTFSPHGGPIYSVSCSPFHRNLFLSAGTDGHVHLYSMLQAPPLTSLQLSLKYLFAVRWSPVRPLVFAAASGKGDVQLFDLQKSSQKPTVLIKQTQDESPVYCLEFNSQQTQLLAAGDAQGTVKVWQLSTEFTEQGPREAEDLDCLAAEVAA
UniProt Q8IWB7: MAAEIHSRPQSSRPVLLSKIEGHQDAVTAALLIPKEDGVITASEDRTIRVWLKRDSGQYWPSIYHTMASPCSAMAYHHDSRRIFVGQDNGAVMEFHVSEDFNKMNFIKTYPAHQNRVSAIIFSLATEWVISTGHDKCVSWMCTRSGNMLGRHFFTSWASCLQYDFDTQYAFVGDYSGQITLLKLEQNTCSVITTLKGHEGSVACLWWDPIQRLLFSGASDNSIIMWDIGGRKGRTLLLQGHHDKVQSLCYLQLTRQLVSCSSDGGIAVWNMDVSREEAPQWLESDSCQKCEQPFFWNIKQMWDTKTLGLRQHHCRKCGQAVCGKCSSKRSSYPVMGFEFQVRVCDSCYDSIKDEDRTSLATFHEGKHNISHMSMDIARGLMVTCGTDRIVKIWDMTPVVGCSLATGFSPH
UniProt Q9BRG1: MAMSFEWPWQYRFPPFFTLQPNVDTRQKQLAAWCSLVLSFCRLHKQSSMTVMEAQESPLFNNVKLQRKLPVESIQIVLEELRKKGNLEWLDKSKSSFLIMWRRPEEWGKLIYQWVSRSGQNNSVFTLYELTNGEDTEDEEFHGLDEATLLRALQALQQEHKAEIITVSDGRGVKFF
UniProt O00258: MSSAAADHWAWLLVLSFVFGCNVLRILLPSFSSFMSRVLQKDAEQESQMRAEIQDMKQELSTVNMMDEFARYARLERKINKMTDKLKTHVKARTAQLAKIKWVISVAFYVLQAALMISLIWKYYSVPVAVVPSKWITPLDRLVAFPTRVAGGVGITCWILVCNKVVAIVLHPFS
UniProt Q502W6: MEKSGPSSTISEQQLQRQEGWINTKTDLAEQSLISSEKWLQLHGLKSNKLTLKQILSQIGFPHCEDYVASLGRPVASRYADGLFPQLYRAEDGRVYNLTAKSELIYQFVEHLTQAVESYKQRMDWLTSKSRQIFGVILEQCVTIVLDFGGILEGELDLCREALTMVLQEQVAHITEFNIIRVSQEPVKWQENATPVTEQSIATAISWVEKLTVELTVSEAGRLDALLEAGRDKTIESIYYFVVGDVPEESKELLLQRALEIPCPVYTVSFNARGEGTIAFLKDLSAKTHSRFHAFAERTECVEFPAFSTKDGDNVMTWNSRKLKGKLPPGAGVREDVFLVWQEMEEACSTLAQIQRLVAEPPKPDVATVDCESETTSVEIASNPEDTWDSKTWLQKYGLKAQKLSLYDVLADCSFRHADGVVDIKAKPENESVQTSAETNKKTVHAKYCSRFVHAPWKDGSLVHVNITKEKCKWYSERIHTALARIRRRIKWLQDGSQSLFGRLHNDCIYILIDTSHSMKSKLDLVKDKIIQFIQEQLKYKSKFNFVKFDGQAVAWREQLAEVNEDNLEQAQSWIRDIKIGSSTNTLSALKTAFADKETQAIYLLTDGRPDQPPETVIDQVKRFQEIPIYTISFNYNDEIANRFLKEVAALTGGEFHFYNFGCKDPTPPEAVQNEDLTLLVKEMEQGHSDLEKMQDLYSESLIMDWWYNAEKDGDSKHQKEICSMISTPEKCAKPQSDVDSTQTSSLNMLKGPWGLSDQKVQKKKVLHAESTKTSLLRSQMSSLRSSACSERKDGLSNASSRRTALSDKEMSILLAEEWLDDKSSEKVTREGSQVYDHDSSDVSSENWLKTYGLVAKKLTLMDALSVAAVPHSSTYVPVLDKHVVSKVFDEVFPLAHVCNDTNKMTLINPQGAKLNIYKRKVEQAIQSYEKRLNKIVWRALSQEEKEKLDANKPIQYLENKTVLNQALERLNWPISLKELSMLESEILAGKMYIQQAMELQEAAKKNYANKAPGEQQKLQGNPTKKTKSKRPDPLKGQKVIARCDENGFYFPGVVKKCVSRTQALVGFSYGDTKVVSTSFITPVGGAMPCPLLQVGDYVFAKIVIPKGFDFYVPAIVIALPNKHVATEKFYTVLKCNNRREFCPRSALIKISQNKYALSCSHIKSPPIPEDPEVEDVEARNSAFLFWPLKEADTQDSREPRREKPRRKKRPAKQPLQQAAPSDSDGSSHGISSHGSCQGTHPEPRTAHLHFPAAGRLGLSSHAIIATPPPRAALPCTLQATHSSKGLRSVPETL
UniProt A5D8V6: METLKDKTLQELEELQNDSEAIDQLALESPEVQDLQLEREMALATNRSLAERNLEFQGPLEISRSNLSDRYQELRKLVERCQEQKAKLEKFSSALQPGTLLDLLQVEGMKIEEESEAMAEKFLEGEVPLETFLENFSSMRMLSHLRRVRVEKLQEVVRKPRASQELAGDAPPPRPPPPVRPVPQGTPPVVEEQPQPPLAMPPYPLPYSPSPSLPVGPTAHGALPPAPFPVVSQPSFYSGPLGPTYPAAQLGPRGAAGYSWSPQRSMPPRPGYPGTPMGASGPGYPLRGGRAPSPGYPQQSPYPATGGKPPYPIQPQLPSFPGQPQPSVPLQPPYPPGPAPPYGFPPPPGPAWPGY

What was measured:
Test in all cases: log2 fold change, soluble protein after heating vs DMSO (PISA); higher = thermal stabilisation; K562 cells, 10 uM, 30 min; active = over 0.2 and 3.5 SD of the protein, either way, in both replicates (recomputed)
[1] = compound: COC1=CC=C(C=C1)CN2C=CC3=C2C=C(C=C3)C(=O)NO
Procedure, shortened: (§1)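 For each measurement, 10 μM compound was applied for 30 min to K562 cells at 2×10^6 cells/mL. Aliquots were heated for 3 min across 48°C-58°C, pooled, and extracted in PBS with 0.5% NP-40 at 4°C; the supernatant after 21,000xg for 90 min was soluble protein. This was quantified by TMTpro 16plex LC-MS/MS with channel sums equalised, and thermal stability was reported relative to control samples from duplicates, on a log2 fold-change scale.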

filanesib = compound: CON(C)C(=O)N1N=C(c2cc(F)ccc2F)S[C@@]1(CCCN)c1ccccc1 [filanesib]
Procedure, shortened: as §1

zotarolimus = compound: CO[C@H]1C[C@@H]2CC[C@@H](C)[C@@](O)(O2)C(=O)C(=O)N2CCCC[C@H]2C(=O)O[C@H]([C@H](C)C[C@@H]2CC[C@H](n3cnnn3)[C@H](OC)C2)CC(=O)[C@H](C)/C=C(\C)[C@@H](O)[C@@H](OC)C(=O)[C@H](C)C[C@H](C)/C=C/C=C/C=C/1C [zotarolimus]
Procedure, shortened: as §1

idasanutlin = compound: COc1cc(C(=O)O)ccc1NC(=O)[C@@H]1N[C@@H](CC(C)(C)C)[C@](C#N)(c2ccc(Cl)cc2F)[C@H]1c1cccc(Cl)c1F [idasanutlin]
Procedure, shortened: as §1

alisertib = compound: COc1cc(Nc2ncc3c(n2)-c2ccc(Cl)cc2C(c2c(F)cccc2OC)=NC3)ccc1C(=O)O [alisertib]
Procedure, shortened: as §1

[2] = compound: COc1cc2nc(-c3cc(F)ccc3O)nc(N[C@@H]3CNC[C@H]3C(C)(C)O)c2cc1OC
Procedure, shortened: as §1

gefitinib = compound: COc1cc2ncnc(Nc3ccc(F)c(Cl)c3)c2cc1OCCCN1CCOCC1 [gefitinib]
Procedure, shortened: as §1

[3] = compound: COc1cccc2cc(-c3nc([C@H]4CC[C@H](C(=O)O)CC4)n4ncnc(N)c34)[nH]c12
Procedure, shortened: as §1

lapatinib = compound: CS(=O)(=O)CCNCc1ccc(-c2ccc3ncnc(Nc4ccc(OCc5cccc(F)c5)c(Cl)c4)c3c2)o1 [lapatinib]
Procedure, shortened: as §1

pictilisib = compound: CS(=O)(=O)N1CCN(Cc2cc3nc(-c4cccc5[nH]ncc45)nc(N4CCOCC4)c3s2)CC1 [pictilisib]
Procedure, shortened: as §1

Measured: log2 fold change

WIZ (UniProt O95785)
inactive: [1] -0.054 | filanesib -0.001 | zotarolimus -0.014 | idasanutlin 0 | alisertib -0.018 | [2] -0.017 | gefitinib -0.043 | [3] 0.027 | lapatinib 0.014 | pictilisib 0.031

WDR55 (UniProt Q9H6Y2)
inactive: [1] -0.013 | filanesib -0.042 | zotarolimus -0.038 | idasanutlin 0 | alisertib -0.038 | [2] -0.057 | gefitinib 0.018 | [3] 0.04 | lapatinib 0.013 | pictilisib 0.022

WBP2 (UniProt Q969T9)
inactive: [1] 0.036 | filanesib -0.159 | zotarolimus -0.012 | idasanutlin 0.022 | alisertib -0.014 | [2] -0.035 | gefitinib -0.013 | [3] 0 | lapatinib 0.017 | pictilisib 0.005

VPS39 (UniProt Q96JC1)
inactive: [1] -0.038 | filanesib -0.119 | zotarolimus 0.023 | idasanutlin -0.028 | alisertib -0.012 | [2] 0.021 | gefitinib 0.051 | [3] -0.059 | lapatinib -0.012 | pictilisib -0.035

WDR89 (UniProt Q96FK6)
inactive: [1] -0.027 | filanesib -0.019 | zotarolimus -0.026 | idasanutlin 0.063 | alisertib -0.086 | [2] -0.023 | gefitinib 0.006 | [3] 0.021 | lapatinib 0.006 | pictilisib -0.016

WDSUB1 (UniProt Q8N9V3)
inactive: [1] 0.031 | filanesib 0.027 | zotarolimus 0.02 | idasanutlin -0.001 | alisertib 0.022 | [2] -0.025 | gefitinib 0.008 | [3] 0.053 | lapatinib -0.03 | pictilisib 0.081

VPS33A (UniProt Q96AX1)
inactive: [1] 0.018 | filanesib -0.096 | zotarolimus 0.033 | idasanutlin -0.039 | alisertib -0.037 | [2] 0.014 | gefitinib -0.033 | [3] -0.039 | lapatinib 0.015 | pictilisib -0.083

WDR48 (UniProt Q8TAF3)
inactive: [1] -0.025 | filanesib -0.029 | zotarolimus -0.027 | idasanutlin -0.005 | alisertib -0.044 | [2] 0.038 | gefitinib 0.023 | [3] 0.048 | lapatinib -0.033 | pictilisib 0.033

VPS26B (UniProt Q4G0F5)
inactive: [1] -0.012 | filanesib -0.11 | zotarolimus -0.023 | idasanutlin -0.061 | alisertib -0.088 | [2] -0.013 | gefitinib -0.011 | [3] 0.049 | lapatinib 0.016 | pictilisib -0.027

WDTC1 (UniProt Q8N5D0)
inactive: [1] -0.062 | filanesib -0.003 | zotarolimus 0.035 | idasanutlin -0.027 | alisertib -0.169 | [2] 0.035 | gefitinib -0.135 | [3] 0.084 | lapatinib 0.097 | pictilisib 0.016

WDR7 (UniProt Q9Y4E6)
inactive: [1] -0.04 | filanesib 0.084 | zotarolimus 0.045 | idasanutlin -0.016 | alisertib -0.076 | [2] -0.102 | gefitinib -0.027 | [3] -0.074 | lapatinib 0.003 | pictilisib -0.097

WDR34 (UniProt Q96EX3)
inactive: [1] -0.126 | filanesib 0.082 | zotarolimus 0.039 | idasanutlin -0.166 | alisertib -0.402 | [2] 0.042 | gefitinib 0 | [3] -0.033 | lapatinib 0 | pictilisib -0.029

WDFY1 (UniProt Q8IWB7)
inactive: [1] -0.053 | filanesib -0.022 | zotarolimus -0.02 | idasanutlin 0.022 | alisertib -0.022 | [2] 0.063 | gefitinib 0.033 | [3] 0.07 | lapatinib -0.038 | pictilisib -0.01

WRAP53 (UniProt Q9BUR4)
inactive: [1] 0.013 | filanesib 0.012 | zotarolimus -0.005 | idasanutlin -0.123 | alisertib -0.053 | [2] 0.051 | gefitinib -0.013 | [3] 0.26 | lapatinib -0.045 | pictilisib 0.075

WDR3 (UniProt Q9UNX4)
inactive: [1] -0.078 | filanesib 0.398 | zotarolimus 0.052 | idasanutlin 0.185 | alisertib -0.156 | [2] -0.018 | gefitinib -0.28 | [3] -0.231 | lapatinib -0.005 | pictilisib -0.072

VPS35L (UniProt Q7Z3J2)
inactive: [1] 0.028 | filanesib 0.049 | zotarolimus -0.016 | idasanutlin -0.118 | alisertib 0.041 | [2] 0.058 | gefitinib 0.059 | [3] -0.032 | lapatinib -0.05 | pictilisib 0.061

WDR74 (UniProt Q6RFH5)
inactive: [1] -0.141 | filanesib 0.16 | zotarolimus 0.014 | idasanutlin 0.118 | alisertib -0.131 | [2] 0.036 | gefitinib -0.047 | [3] -0.034 | lapatinib 0.047 | pictilisib -0.09

WDR91 (UniProt A4D1P6)
inactive: [1] 0.103 | zotarolimus 0.039 | idasanutlin 0.099 | alisertib 0.27 | [2] -0.084 | [3] -0.03 | lapatinib 0.133

VIRMA (UniProt Q69YN4)
inactive: [1] -0.03 | zotarolimus 0.014 | gefitinib -0.09 | pictilisib 0.11

VGLL4 isoform 4 (UniProt Q14135)
inactive: [1] -0.059 | filanesib 0.049 | idasanutlin -0.001 | alisertib -0.104 | [2] 0.002 | gefitinib -0.033 | [3] -0.043 | lapatinib 0.152 | pictilisib 0.003

VSIR (UniProt Q9H7M9)
inactive: [1] -0.106 | filanesib 0.048 | zotarolimus -0.107 | alisertib -0.052 | gefitinib 0.013 | [3] 0.045 | pictilisib 0.082

VPS25 (UniProt Q9BRG1)
inactive: [1] -0.008 | filanesib -0.049 | zotarolimus 0.051 | idasanutlin -0.04 | alisertib -0.029 | [2] 0.013 | gefitinib 0.015 | [3] 0.045 | lapatinib 0.004 | pictilisib 0.045

WBP4 (UniProt O75554)
inactive: [1] 0.001 | filanesib -0.082 | zotarolimus -0.025 | idasanutlin 0.022 | alisertib -0.042 | [2] -0.009 | gefitinib 0.014 | [3] -0.003 | lapatinib 0.05 | pictilisib -0.139

2 entries picked at random from the list so far, as already listed:
VPS25 (UniProt Q9BRG1)
inactive: [1] -0.008 | filanesib -0.049 | zotarolimus 0.051 | idasanutlin -0.04 | alisertib -0.029 | [2] 0.013 | gefitinib 0.015 | [3] 0.045 | lapatinib 0.004 | pictilisib 0.045

VIRMA (UniProt Q69YN4)
inactive: [1] -0.03 | zotarolimus 0.014 | gefitinib -0.09 | pictilisib 0.11

Remaining list, next part.

WRB (UniProt O00258)
inactive: [1] -0.036 | filanesib -0.041 | zotarolimus -0.019 | idasanutlin -0.032 | alisertib -0.031 | [2] -0.066 | gefitinib 0.012 | [3] 0.051 | lapatinib 0.03 | pictilisib 0.094

VPS11 (UniProt Q9H270)
inactive: [1] -0.019 | filanesib -0.038 | zotarolimus 0.053 | idasanutlin -0.063 | alisertib -0.022 | [2] -0.032 | gefitinib -0.005 | [3] -0.041 | lapatinib -0.045 | pictilisib -0.013

VWA3B isoform 6 (UniProt Q502W6)
inactive: [1] -0.156 | zotarolimus -0.083 | idasanutlin -0.41 | alisertib -0.081 | [2] -0.272 | gefitinib 0.008 | [3] -0.022 | lapatinib 0.079 | pictilisib 0.118

WDR26, A0A499FIZ0
inactive: [1] -0.062 | filanesib -0.036 | zotarolimus -0.016 | idasanutlin 0.019 | alisertib -0.013 | [2] -0.039 | gefitinib 0.028 | [3] 0.01 | lapatinib 0.092 | pictilisib 0.01

VPS37C (UniProt A5D8V6)
inactive: [1] -0.091 | zotarolimus 0.008 | idasanutlin 0.077 | alisertib -0.068 | [2] 0.08 | gefitinib 0.02 | [3] 0.02 | lapatinib -0.012 | pictilisib -0.011

VWA8 (UniProt A3KMH1)
inactive: [1] -0.025 | filanesib -0.052 | zotarolimus -0.027 | idasanutlin -0.119 | alisertib -0.037 | [2] 0.006 | gefitinib 0.011 | [3] 0.077 | lapatinib 0 | pictilisib 0.01

WDR77 (UniProt Q9BQA1)
inactive: [1] -0.009 | filanesib -0.019 | zotarolimus 0.009 | idasanutlin -0.033 | alisertib -0.129 | [2] -0.001 | gefitinib 0.039 | [3] 0.038 | lapatinib 0.024 | pictilisib -0.013

VWF (UniProt P04275)
inactive: [1] 0.131 | idasanutlin 0.068

WDR41 (UniProt Q9HAD4)
inactive: [1] 0.025 | filanesib -0.154 | zotarolimus -0.007 | idasanutlin -0.031 | alisertib -0.072 | [2] -0.254 | gefitinib -0.002 | [3] 0.014 | lapatinib 0.049 | pictilisib -0.056
